These are yes or no findings as the source states them, for the method shown. Some results given as binding are weak or reduced against the parent protein; the word gives no strength.
Molecular target: C-terminal 6×His-tagged hCXCR5 whole receptor protein (human) (UniProt P32302)
Assay: SPR (Biacore), whole receptor captured and crosslinked on NTA chip

Protein sequences, listed by entry. Tags and fused reporters are not part of them. Lines headed by an entry give the natural chain unless they say otherwise; changes in a name come on top. Chains listed by the source or under a name are the forms on record and can include a tag or linker.
C-terminal 6×His-tagged hCXCR5 whole receptor protein (P32302, form named): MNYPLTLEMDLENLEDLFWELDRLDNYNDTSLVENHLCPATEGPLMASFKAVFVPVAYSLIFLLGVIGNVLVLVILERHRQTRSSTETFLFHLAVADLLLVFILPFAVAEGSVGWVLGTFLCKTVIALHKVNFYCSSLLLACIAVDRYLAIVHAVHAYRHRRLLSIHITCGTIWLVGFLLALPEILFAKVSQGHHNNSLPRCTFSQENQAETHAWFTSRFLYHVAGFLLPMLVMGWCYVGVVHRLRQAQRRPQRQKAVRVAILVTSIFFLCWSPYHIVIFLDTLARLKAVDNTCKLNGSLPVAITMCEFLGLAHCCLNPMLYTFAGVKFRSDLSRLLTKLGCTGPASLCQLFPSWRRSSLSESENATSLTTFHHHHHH

B1: CXCL13 (ligand, UniProt O43927 23-109, looked up)
chain: VLEVYYTSLRCRCVQESSVFIPRRFIDRIQILPRGNGCPRKEIIVWKKNKSIVCVDPQAEWIQRMMEVLRKRSSSTLPVPVFKRKIP
notes: also called hCXCR5 ligand
binding: binds

— patent US20140256918A1 (published 2014)
